# Test results published in publication PMC5328659 (Journal of clinical toxicology, 2016).
# Assay: DZP quantification in plasma and brain by LC/MS
# Format: in vivo, mice
# Details: for concentration at 5 min / concentration at 1 h: Swiss Webster, mouse, intraperitoneal, 10 mpk
smiles,measurement,setting,value
"CN1C(=O)CN=C(c2ccccc2)c2cc(Cl)ccc21 [DZP, diazepam]",Decrease of tissue and plasma levels of DZP at 1 h after dosing,DZP 10 mg/kg i.p.,at least 3 fold
same,concentration at 5 min,brain,15000 ± 3000 nM
same,concentration at 1 h,brain,1000 ± 100 nM
same,concentration at 5 min,plasma,3000 ± 800 nM
same,concentration at 1 h,plasma,400 ± 50 nM
